The list shows a part of the results, in another mix than the full data. For part of these data: At the low end of the ranking the order means little. The list shows a part of the results. For part of these data: The source does not settle which construct or isoform was used.
Tests used:
Assay in all cases: DAPPL (digital affinity profiling via proximity ligation, sequencing)
Conditions in all cases: 10 mM Tris-HCl pH 7.5, 50 mM NaCl, 1 mM DTT, 4% glycerol, room temperature, 30 min; GST-TFs on glutathione beads, 16-mer random dsDNA library, 0.1% …; high values mean tight binding; double strand, one strand shown; scale: fold enrichment (6-mer frequency, TF over GST control)
GABPA = target: T1, GABPA (UniProt Q06546)
T1 sequence: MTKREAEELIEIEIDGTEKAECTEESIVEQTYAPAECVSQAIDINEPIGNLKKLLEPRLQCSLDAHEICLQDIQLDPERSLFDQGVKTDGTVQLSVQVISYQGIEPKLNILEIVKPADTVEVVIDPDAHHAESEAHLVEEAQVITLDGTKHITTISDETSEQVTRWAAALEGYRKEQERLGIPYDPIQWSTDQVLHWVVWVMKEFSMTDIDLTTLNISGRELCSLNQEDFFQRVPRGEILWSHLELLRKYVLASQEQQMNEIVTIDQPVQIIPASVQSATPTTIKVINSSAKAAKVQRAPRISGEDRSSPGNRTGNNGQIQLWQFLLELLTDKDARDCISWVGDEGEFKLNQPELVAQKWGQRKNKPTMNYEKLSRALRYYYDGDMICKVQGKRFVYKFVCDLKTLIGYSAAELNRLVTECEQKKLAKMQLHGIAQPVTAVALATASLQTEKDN

ETS1 = target: T2, ETS1 (UniProt P14921)
T2 sequence: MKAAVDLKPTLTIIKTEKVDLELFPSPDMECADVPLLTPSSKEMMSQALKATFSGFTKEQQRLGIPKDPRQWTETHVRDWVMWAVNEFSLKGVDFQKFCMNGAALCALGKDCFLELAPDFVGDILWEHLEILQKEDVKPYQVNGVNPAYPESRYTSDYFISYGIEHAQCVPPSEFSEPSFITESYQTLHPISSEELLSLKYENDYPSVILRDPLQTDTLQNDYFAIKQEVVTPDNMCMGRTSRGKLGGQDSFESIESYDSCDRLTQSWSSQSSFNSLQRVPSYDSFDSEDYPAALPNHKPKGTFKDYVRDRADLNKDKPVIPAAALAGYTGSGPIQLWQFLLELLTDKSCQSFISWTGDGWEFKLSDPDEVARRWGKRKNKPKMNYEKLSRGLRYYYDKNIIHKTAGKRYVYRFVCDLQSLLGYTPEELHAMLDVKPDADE

SPDEF = target: T3, SPDEF (UniProt O95238)
T3 sequence: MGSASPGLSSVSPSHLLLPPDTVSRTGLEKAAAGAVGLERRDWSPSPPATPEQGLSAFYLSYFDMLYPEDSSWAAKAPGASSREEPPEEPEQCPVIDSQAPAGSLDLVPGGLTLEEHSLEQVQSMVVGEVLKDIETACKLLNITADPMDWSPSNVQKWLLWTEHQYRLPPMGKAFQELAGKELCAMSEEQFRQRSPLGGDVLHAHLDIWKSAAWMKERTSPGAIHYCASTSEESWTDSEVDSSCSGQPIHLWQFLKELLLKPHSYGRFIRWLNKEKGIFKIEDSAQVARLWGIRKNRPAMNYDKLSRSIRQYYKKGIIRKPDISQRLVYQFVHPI

Sequence	binding signal (GABPA)	binding signal (ETS1)	binding signal (SPDEF)
TTCATT	1.16	1.28	1.24
CTAACC	1.09	1.13	1.09
TGACAT	1.31	1.07	1.25
AGAGAA	0.914	0.838	0.841
CGCTGT	0.973	0.931	0.961
ACTGGG	0.931	0.893	0.821
GCCTGA	1.11	1.06	0.999
GCCTGG	0.989	0.968	0.961
TGAAAG	0.965	0.955	0.926
GCAGGT	0.88	0.842	0.913
GCCCTG	0.992	1.07	0.85
TTAATA	1.18	1.2	1.14
TAAGGC	0.924	1.03	0.966
CGAACG	0.929	0.985	0.975
ACCACA	0.983	1.03	0.99
GTTTCA	1.35	1.3	1.22
CATCGT	0.955	0.949	0.832
AGATGG	0.904	0.936	0.899
GTTCCT	1.64	1.79	1.74
GCATTA	0.841	0.865	0.854
CAGTAT	0.928	0.931	0.907
TAAGAC	0.927	0.925	0.883
GGGTAT	0.971	1.03	0.977

Three neighbouring records from above, for reference:
Sequence	binding signal (GABPA)	binding signal (ETS1)	binding signal (SPDEF)
CATCGT	0.955	0.949	0.832
AGATGG	0.904	0.936	0.899
GTTCCT	1.64	1.79	1.74

Carrying on.

Sequence	binding signal (GABPA)	binding signal (ETS1)	binding signal (SPDEF)
TAGAGA	0.771	0.793	0.764
TATCCC	1.53	1.6	1.72
GGGCAT	0.861	0.975	0.902
AATCGT	0.884	0.823	0.883
GCGAAC	0.927	0.977	0.838
GTGGTA	0.917	0.991	0.871
CCCTAG	0.926	0.96	0.96
GCAGAA	0.911	0.933	0.799
GGCTTT	0.942	1.02	1
GAAGAA	1.14	1.11	1.09
GGTGGT	0.941	0.928	0.945
GCGAAA	0.859	0.965	0.904
AGTTAC	0.904	0.96	0.96
GCGTTA	0.981	0.979	0.869
TCCAGC	0.97	0.937	0.99
GCAGCA	0.998	0.961	0.933
TCTTCG	1.45	1.52	1.49
GAATGG	0.983	1.07	0.943
ATTGTG	0.979	1.01	0.933
TTACCA	1.04	1.12	1.09
GACTAT	0.906	0.926	0.905
GTTGCG	0.87	0.939	0.925

Source: PMC7862700
